# Data from EP4541376A1, “ANTIBODY-DRUG CONJUGATES” (priority 2023, dated 2025).
# Numbered stars: 1 amine (or outer) side, 2 acyl side, 3 side chain; on linkers, the order of the positions; unused ones are H or OH. Square brackets hold non-standard residues; d marks the D form. Peptide text beside a SMILES is read from it. * marks the point of attachment. Exatecan = CC[C@@]1(O)C(=O)OCc2c1cc1n(c2=O)Cc2c-1nc1cc(F)c(C)c3c1c2[C@@H](N*)CC3; Propanoyl(3-maleimido) = O=C1C=CC(=O)N1CCC(=O)*; PABC = O=C(OCc1ccc(N[*:1])cc1)[*:2]
# Assay: Conjugation study PEG versus Glycine: extent of conjugation (DAR) by HIC-UHPLC and PLRP-HPLC
# Conditions: conjugated to test antibody
# [1] = Target DAR 4, TCEP eq. 3.0, Payload eq. 6.0
# [2] = Target DAR 6, TCEP eq. 6.0, Payload eq. 8.0
# [3] = Target DAR 8, TCEP eq. 7.5, Payload eq. 10.0
compound,measurement,setting,value
CC[C@@]1(O)C(=O)OCc2c1cc1n(c2=O)Cc2c-1nc1cc(F)c(C)c3c1c2[C@@H](NC(=O)OCc1ccc(NC(=O)[C@H](C)NC(=O)[C@@H](NC(=O)CNC(=O)CNC(=O)CNC(=O)CNC(=O)CNC(=O)CCN2C(=O)C=CC2=O)C(C)C)cc1)CC3 [Mal-Gly5-VA-PABC-Exatecan] ({Propanoyl(3-maleimido)}-GGGGGVA[PABC]-Exatecan),DAR (HIC),[1],4.0
same,DAR (PLRP),[1],3.8
same,DAR (HIC),[2],5.4
same,DAR (PLRP),[2],6.0
same,DAR (HIC),[3],7.3
same,DAR (PLRP),[3],7.9
